The whole screen tested about 300,000 compounds, of which about 5,400 (1.8%) were called active. Inconclusive results, whose numbers are uncertain, are shown with a selection of clear calls. Calls come from the whole dose curve; tested in HEK293 cells. Potencies of inconclusive entries are doubtful fits and often do not repeat.
Assay: qHTS for inhibitors of binding or entry into cells for Marburg Virus
Conditions: Marburg virus pseudotyped entry inhibition, cell reporter; series mostly up to 37.8 µM
Potency is the fitted concentration of half-maximal effect.

Structure (SMILES) | Potency
COc1ccc(C2Nc3ccccc3C(=O)N2O)cc1OC (stereo not drawn) | inactive
COC(=O)CC1Oc2ccc(Cl)cc2-n2cc(-c3ccccc3)nc21 (stereo not drawn) | inconclusive: 3.16 µM [activator, single point]
Cc1nn(C)c(C)c1CN(Cc1nc(-c2cc(F)ccc2F)oc1C)C1CC1 | inconclusive: 35.5 µM [inhibitor, single point]
Cc1onc(-c2ccccc2Cl)c1C(=O)Nc1ccccc1O | inconclusive: 12.6 µM [inhibitor, single point]
O=C(NC1(C(F)(F)F)NC(=O)N(CCc2ccccc2)C1=O)c1ccc(Cl)cc1 (stereo not drawn) | inconclusive: 1.78 µM [inhibitor, partial curve, poor fit]
CCOC(=O)C(Sc1cc(-c2ccccc2)nc2ncnn12)C(C)=O (stereo not drawn) | inconclusive: 2.51 µM [inhibitor, full curve]
Cc1onc(-c2ccccc2Cl)c1C(=O)NC(=S)NCCc1ccccc1 | inactive
O=C(CSc1cccc2cccnc12)N1CCCC1 | inconclusive: 20 µM [inhibitor, single point]
O=C(COc1ccc(Cl)cc1Cl)NCCCNC(=O)c1cnccn1 | inconclusive: 1 µM [inhibitor, partial curve, poor fit]
O=C(COC(=O)c1ccc(Cl)nc1)Nc1ccc(N2CCCCC2)cc1 | inconclusive: 1.12 µM [inhibitor, single point]
COC(=O)c1ccc(NC(=O)c2cccc(N3C(=O)CCC3=O)c2)cc1 | inactive
Cc1cc(-c2ccc(C(C)C)c(S(=O)(=O)N3CC(=O)Nc4ccccc43)c2)on1 | inconclusive: 35.5 µM [activator, single point]
COCCCNC(=S)N1CCN(c2ccc([N+](=O)[O-])cc2)CC1 | inconclusive: 15.8 µM [inhibitor, single point]
CCCCC1C(=O)NN(c2ccccc2)C1=O (stereo not drawn) | inconclusive: 8.91 µM [inhibitor, partial curve, poor fit]
CCn1c2ccccc2c2cc(NC(=O)c3ccc(Br)o3)ccc21 | inactive
Cc1ccc(NNC(=O)C(O)(c2cccc(C(F)(F)F)c2)c2cccc(C(F)(F)F)c2)cc1 | inconclusive: 18.4 µM [inhibitor, partial curve, poor fit]
CCN(CC)CCCN(Cc1cc2cc3c(cc2[nH]c1=O)OCO3)C(=S)NCc1ccco1 | inconclusive: 5.01 µM [inhibitor, partial curve, poor fit]
CC(NC(=O)c1ccncc1)c1ccc(Cl)cc1Cl (stereo not drawn) | inconclusive: 6.31 µM [inhibitor, single point]
COc1cc(OC)cc(C(=O)Nc2ccc(-n3cnnn3)c(C)c2)c1 | inactive
O=C(CSc1nnc(NC(=O)c2ccccc2)s1)NC1CCCC1 | inconclusive: 35.5 µM [inhibitor, single point]
COc1cccc(C(C2=C(O)CC(C)(C)CC2=O)C2C(=O)CC(C)(C)CC2=O)c1 (stereo not drawn) | inactive
CN(C)C(=O)c1ccc(Nc2ncnc3sc4c(c23)CCCCC4)cc1 | inconclusive: 11.2 µM [inhibitor, partial curve, poor fit]

Structure (SMILES) | Potency
COc1ccc(Cn2nnnc2C(c2cc3ccc(OC)cc3[nH]c2=O)N2CCC(C)CC2)cc1 (stereo not drawn) | inconclusive: 23.1 µM [inhibitor, single point]
COc1ccc(NC(=O)CN(C)C(=O)c2cc(S(=O)(=O)N(C)C)ccc2N2CCCC2)cc1 | inactive
CC(=O)n1c(Cl)c(NC(=O)CCl)c2ccccc21 | inconclusive: 20.6 µM [inhibitor, partial curve, poor fit]
CCCOc1ccc(N2C(=O)CC(N3CCN(c4ccccc4OC)CC3)C2=O)cc1 (stereo not drawn) | inactive
CCCCc1[nH]c(=O)c(C#N)c2c1CSC(C)(C)C2 | inactive
Cc1cc(C(=O)O)ccc1N/C=C1\CCCC(C)C1=O (stereo not drawn) | active: 7.94 µM
O=C(c1ccc(S(=O)(=O)Cc2cc(F)ccc2F)c([N+](=O)[O-])c1)N1CCCC1 | inconclusive: 15.8 µM [inhibitor, single point]
Cc1ccc2cc(C#N)c(NCCCNC(=O)C3CCCO3)nc2c1 (stereo not drawn) | inconclusive: 0.73 µM [inhibitor, full curve, poor fit]
Cc1noc(C)c1S(=O)(=O)N1CCC(C(=O)N2CCN(c3cccc(C(F)(F)F)c3)CC2)CC1 | inactive
O=C(Cc1nc2ccccc2[nH]c1=O)c1ccccc1 | inconclusive: 0.562 µM [activator, full curve, poor fit]
C(=N\Nc1ccc2nncn2n1)/c1ccccn1 | inconclusive: 20 µM [inhibitor, partial curve, poor fit]
N#Cc1cn(C2OC(CO)C(O)C2O)c2ncnc(N)c12 (stereo not drawn) | inconclusive: 0.1 µM [inhibitor, full curve, poor fit]
CCOC(=O)c1c(C)nn(-c2ccc(NC(=O)/C=C/C(=O)O)cc2)c1C | inconclusive: 1.78 µM [inhibitor, full curve, poor fit]
Cc1ccccc1N=C/C=C1\N(C)c2ccccc2C1(C)C | inconclusive: 0.0517 µM [inhibitor, full curve, poor fit]
Cc1ccc(Cn2c(C(C)NC(=O)c3ccccc3)nc3ccccc32)cc1 (stereo not drawn) | inconclusive: 11.2 µM [inhibitor, partial curve, poor fit]
CCc1ccc(OCC(=O)NC(NC(=S)Nc2ccc(Cl)cc2)C(Cl)(Cl)Cl)cc1 (stereo not drawn) | inconclusive: 7.08 µM [inhibitor, full curve, poor fit]
CCOc1ccc(C(CC(=O)O)NC(=O)COc2ccccc2)cc1OC (stereo not drawn) | inactive
O=C(COC(=O)c1ccccn1)Nc1nc(-c2ccccc2)cs1 | inconclusive: 7.94 µM [activator, partial curve, poor fit]
CCOC(=O)CC(=O)CSc1nnc(Cn2c(=O)sc3ccccc32)n1C | inactive
Cc1ccc2nc(N3CCN(c4ccccc4)CC3)c(C=O)c(=O)n2c1 | inconclusive: 5.62 µM [inhibitor, partial curve, poor fit]
COC[C@H]1O[C@@H]2O[C@@H]1[C@@H](C=Cc1ccccc1)C[C@H]2C | inactive

A different layout for some results above:
Structure (SMILES)	Potency
CC(=O)n1c(Cl)c(NC(=O)CCl)c2ccccc21	inconclusive: 20.6 µM [inhibitor, partial curve, poor fit]
CCCOc1ccc(N2C(=O)CC(N3CCN(c4ccccc4OC)CC3)C2=O)cc1 (stereo not drawn)	inactive
CCCCc1[nH]c(=O)c(C#N)c2c1CSC(C)(C)C2	inactive

Source: PubChem BioAssay AID540276 (National Center for Advancing Translational Sciences (NCATS), 2011)
